{"source": "PubChem BioAssay AID248", "about": "(DTP/NCI, 2004)", "system": "L1210 leukemia ip in BDF1 mice, survival T/C", "test": "NCI In Vivo Anticancer Drug Screen. Data for tumor model L1210 Leukemia (intraperitoneal) in B6D2F1 (BDF1) mice", "settings": "higher T/C = longer survival", "key": {"[1]": {"settings": "T/C endpoint: mean survival time, dose: 400.0 mg/kg/injection, schedule: Q04DX003 (ip), vehicle: Klucel (hydroxypropylcellulose) (HPC)"}, "[2]": {"settings": "T/C endpoint: mean survival time, dose: 400.0 mg/kg/injection, schedule: Q01DX001 (ip), vehicle: saline"}, "[3]": {"settings": "T/C endpoint: mean survival time, dose: 400.0 mg/kg/injection, schedule: Q04DX003 (ip), vehicle: saline with Tween-80"}}, "note": "The list does not hold the whole screen: it gathers tests that were run many times, whatever their T/C, doses with no T/C, and many T/C values between a quarter and a half above the control. Other doses and runs of a compound stand elsewhere. T/C is the treated group as % of the vehicle group. Some entries give survivors of the animals treated and no T/C: the source files T/C as zero there, which appears to mark a toxic dose or a test without result, not a measured value. Some doses without a T/C left all or most animals alive at the check, yet need not have been tolerated: survival well below the control is almost never listed, so the zero probably covers shortened survival too. Survivors were counted at the toxicity check, usually on the fifth day, unless a day is given; later deaths do not show. Schedule codes are those of the source, read here as Q, the interval in days (D) or hours (H), X, the number of doses. Where survival is the endpoint, this PubChem deposit counts one and a half times the control or more as active, and values a quarter to a half above the control carry no call in these data; other NCI protocols may use other cut-offs.", "data": [{"molecule": "Cc1n(CCBr)c([N+](=O)[O-])c[n+]1C1N=C(c2ccccc2)c2cc(Cl)ccc2NC1=O", "note": "(stereo unspecified)", "values": [{"measurement": "survivor count", "setting": "[1]", "value": "2 of 3"}]}, {"molecule": "Nc1nc(N)c(N=Nc2ccccc2)c(=O)[nH]1", "values": [{"measurement": "survivor count", "setting": "T/C endpoint: mean survival time, dose: 400.0 mg/kg/injection, schedule: Q01DX001 (ip), vehicle: carboxymethylcellulose (CMC)", "value": "6 of 6"}]}, {"molecule": "C[N+](C)(C)CCN=C(N)N[N+](=O)[O-]", "values": [{"measurement": "survivor count", "setting": "T/C endpoint: mean survival time, dose: 400.0 mg/kg/injection, schedule: Q01DX009 (ip), vehicle: saline", "value": "5 of 6"}]}, {"molecule": "O=C(Cc1ccccc1)NCc1ccccc1", "values": [{"measurement": "survivor count", "setting": "T/C endpoint: mean survival time, dose: 100.0 mg/kg/injection, schedule: Q01DX001 (ip), vehicle: saline", "value": "1 of 3"}, {"measurement": "survivor count", "setting": "[2]", "value": "0 of 3"}]}, {"molecule": "FC(F)(F)c1ccc2c(c1)N(CCCN1CCN(CC[n+]3ccccc3)CC1)c1ccccc1S2", "values": [{"measurement": "survivor count", "setting": "T/C endpoint: mean survival time, dose: 21.0 mg/kg/injection, schedule: Q01DX009 (ip), vehicle: saline", "value": "3 of 6"}, {"measurement": "survivor count", "setting": "T/C endpoint: mean survival time, dose: 50.0 mg/kg/injection, schedule: Q04DX003 (ip), vehicle: saline", "value": "5 of 6"}, {"measurement": "survivor count", "setting": "T/C endpoint: mean survival time, dose: 100.0 mg/kg/injection, schedule: Q04DX003 (ip), vehicle: saline", "value": "0 of 6"}]}, {"molecule": "CCOC(=O)c1[nH]c(-c2ccccc2)nc1/N=N/N(C)C", "values": [{"measurement": "T/C", "setting": "T/C endpoint: median survival time, dose: 50.0 mg/kg/injection, schedule: Q01DX009 (ip), vehicle: Klucel (hydroxypropylcellulose) (HPC)", "value": "138 % of control"}, {"measurement": "T/C", "setting": "T/C endpoint: median survival time, dose: 100.0 mg/kg/injection, schedule: Q01DX009 (ip), vehicle: Klucel (hydroxypropylcellulose) (HPC)", "value": "138 % of control"}]}, {"molecule": "CCCCOC(=O)c1ccc(NC(=O)Nc2ccccc2)cc1", "values": [{"measurement": "survivor count", "setting": "T/C endpoint: mean survival time, dose: 200.0 mg/kg/injection, schedule: Q04DX003 (ip), vehicle: saline with Tween-80", "value": "3 of 6"}, {"measurement": "survivor count", "setting": "[3]", "value": "2 of 6"}]}, {"molecule": "COc1ccc(N=C=Nc2ccc(OC)cc2)cc1", "values": [{"measurement": "survivor count", "setting": "T/C endpoint: mean survival time, dose: 50.0 mg/kg/injection, schedule: Q01DX009 (ip), vehicle: Klucel (hydroxypropylcellulose) (HPC)", "value": "2 of 6"}, {"measurement": "survivor count", "setting": "T/C endpoint: mean survival time, dose: 100.0 mg/kg/injection, schedule: Q01DX009 (ip), vehicle: Klucel (hydroxypropylcellulose) (HPC)", "value": "0 of 6"}, {"measurement": "survivor count", "setting": "T/C endpoint: mean survival time, dose: 100.0 mg/kg/injection, schedule: Q04DX003 (ip), vehicle: Klucel (hydroxypropylcellulose) (HPC)", "value": "4 of 6"}, {"measurement": "survivor count", "setting": "T/C endpoint: mean survival time, dose: 200.0 mg/kg/injection, schedule: Q01DX009 (ip), vehicle: Klucel (hydroxypropylcellulose) (HPC)", "value": "0 of 6"}, {"measurement": "survivor count", "setting": "T/C endpoint: mean survival time, dose: 200.0 mg/kg/injection, schedule: Q04DX003 (ip), vehicle: Klucel (hydroxypropylcellulose) (HPC)", "value": "0 of 6"}, {"measurement": "survivor count", "setting": "[1]", "value": "1 of 6"}]}, {"molecule": "CCN(CC)CCC(=O)c1ccc2oc3ccccc3c2c1", "values": [{"measurement": "survivor count", "setting": "T/C endpoint: mean survival time, dose: 200.0 mg/kg/injection, schedule: Q01DX001 (ip), vehicle: saline", "value": "2 of 6"}, {"measurement": "survivor count", "setting": "[2]", "value": "1 of 6"}]}, {"molecule": "O=C(O)c1cc(I)c(I)c(I)c1", "values": [{"measurement": "survivor count", "setting": "[3]", "value": "2 of 3"}]}, {"molecule": "CCOC(=O)N/N=C/c1ccc(N(C)CCC#N)cc1", "values": [{"measurement": "survivor count", "setting": "T/C endpoint: mean survival time, dose: 100.0 mg/kg/injection, schedule: Q04DX003 (ip), vehicle: saline with Tween-80", "value": "6 of 6"}, {"measurement": "T/C", "setting": "T/C endpoint: mean survival time, dose: 400.0 mg/kg/injection, schedule: Q01DX001 (ip), vehicle: saline with Tween-80", "value": "137 % of control"}]}, {"molecule": "CCN(CC)C(=O)C1C2CC3OC(=O)C1C3C2", "note": "(stereo unspecified)", "values": [{"measurement": "survivor count", "setting": "T/C endpoint: mean survival time, dose: 400.0 mg/kg/injection, schedule: Q04DX003 (ip), vehicle: saline", "value": "0 of 4"}]}, {"molecule": "CNC(=S)n1cnc(N)n1", "values": [{"measurement": "survivor count", "setting": "[2]", "value": "0 of 4"}]}, {"molecule": "Nc1c(Cl)ccc2c(Cl)ccnc12", "values": [{"measurement": "survivor count", "setting": "T/C endpoint: mean survival time, dose: 75.0 mg/kg/injection, schedule: Q04DX003 (ip), vehicle: other", "value": "6 of 6"}]}, {"molecule": "Nc1cccc(-c2ccccc2)c1", "values": [{"measurement": "survivor count", "setting": "T/C endpoint: mean survival time, dose: 400.0 mg/kg/injection, schedule: Q01DX001 (ip), vehicle: Klucel (hydroxypropylcellulose) (HPC)", "value": "0 of 6"}]}, {"molecule": "O=C(O)C1C(C(=O)O)C2(Cl)C(Cl)=C(Cl)C1(Cl)C2(Cl)Cl.[Cu+2]", "note": "(stereo unspecified)", "values": [{"measurement": "survivor count", "setting": "T/C endpoint: mean survival time, dose: 100.0 mg/kg/injection, schedule: Q01DX001 (ip), vehicle: Klucel (hydroxypropylcellulose) (HPC)", "value": "0 of 6"}, {"measurement": "survivor count", "setting": "T/C endpoint: mean survival time, dose: 100.0 mg/kg/injection, schedule: Q01DX009 (ip), vehicle: saline sonified", "value": "0 of 6"}, {"measurement": "survivor count", "setting": "T/C endpoint: mean survival time, dose: 200.0 mg/kg/injection, schedule: Q01DX009 (ip), vehicle: saline sonified", "value": "0 of 6"}]}, {"molecule": "c1ccc(Cn2ccnc2)cc1", "values": [{"measurement": "survivor count", "setting": "T/C endpoint: mean survival time, dose: 100.0 mg/kg/injection, schedule: Q01DX009 (ip), vehicle: water", "value": "0 of 6"}, {"measurement": "survivor count", "setting": "T/C endpoint: mean survival time, dose: 150.0 mg/kg/injection, schedule: Q01DX001 (ip), vehicle: saline", "value": "0 of 6"}, {"measurement": "survivor count", "setting": "T/C endpoint: mean survival time, dose: 200.0 mg/kg/injection, schedule: Q01DX009 (ip), vehicle: water", "value": "0 of 6"}, {"measurement": "survivor count", "setting": "T/C endpoint: mean survival time, dose: 300.0 mg/kg/injection, schedule: Q01DX001 (ip), vehicle: saline", "value": "0 of 6"}, {"measurement": "survivor count", "setting": "T/C endpoint: mean survival time, dose: 400.0 mg/kg/injection, schedule: Q01DX009 (ip), vehicle: water", "value": "0 of 6"}]}, {"molecule": "NCC(=O)c1ccc(Cl)cc1", "values": [{"measurement": "survivor count", "setting": "[2]", "value": "0 of 6"}]}]}
